Measured values taken from PMC9943647, “Structures of pMV158 replication initiator RepB with and without DNA reveal a flexible dual-function protein” (Nucleic Acids Research, 2023).
These are yes or no findings as the source states them, for the method shown. Sequences can lack the tags named with a protein.

Target: His-OBD, His-tagged N-terminal origin binding domain of RepB (pMV158) (streptococcal plasmid pMV158) (UniProt P13921)
Test: crystal structure; His-OBD with 23-bp dsDNA 23AB (DDRI and DDRII) in a 2:1 ratio; sitting drop, 50 mM Tris-HCl pH 8.0, 50 mM MgCl2, 23% PEG3350; space group P21, 3.0 A; two OBDs on each DNA; both purified

- binding: no binding
B1: His-OBD, His-tagged N-terminal origin binding domain of RepB (pMV158) (domain or fragment, UniProt P13921 1-132)
chain: MAKEKARYFTFLLYPESIPSDWELKLETLGVPMAISPLHDKDKSSIKGQKYKKAHYHVLYIAKNPVTADSVRKKIKLLLGEKSLAMVQVVLNVENMYLYLTHESKDAIAKKKHVYDKADIKLINNFDIDRYV
